PMC9275681
No signal at the amounts used counts as a negative. For at least one entry, the source does not settle the construct or the ends of the probe.

The sequences below were run against CenR~P (phosphorylated CenR, wild type) (Rhodobacter sphaeroides 2.4.1) (UniProt Q3IZK6) (assay: EMSA). Conditions: CenR~P 0-1000 nM monomer, 15 nM DNA, 25 mM Tris-HCl pH 7.9, 5 mM EDTA, 10% glycerol, 40 mM K-glutamate, 20 ug/mL BSA, 1 mM DTT, 200 mM NaCl, 30 C 30 min, 6% native PAGE 0.5x TBE + 10% glycerol, recombinant protein, residues 1-228, protein details: H8-TEV tag cleaved by TEV protease and removed, probe letters rebuilt from the primers and the genome.

Row | Sequence | binding result
1 | GCATCCTCCTCGATCAGGAGGTGCGCCGCGGTGAGGAGCGGCTTTTCGCGGCCCGCGTGGTGCTCGTGTGCCTCGCCGCCGACGGGCGTGCGGCGCGGCTTCCGGCGGAAGTCCGCCAAAAGCTTGTGCAGGCGGCCTGAAGCCCTGCAAAAGCAGCAGGTGGCGCAGCTTTGCCACTTGACGCAGATGTGTTGGCAATCCCTCTAAAAGCCGGATAGAATCGGCGTTAAGAACGGCCCGCAGAACGGCCCCCAGAGAGCAGGCAGATGGAAACGGAAACCCTCGCGATGGCGCAGGAGATTGATTTCTCCATGCTCGCCCTCTTCGCGCGCGCAACGCTCACCGTGAAGTTCG (double strand) [tolQ (tolQRAB) promoter fragment] | binds
2 | CCGTCCCTTCGACCCGCCTCTCCCCGTCCCGGCTCCGCCGTCCGCCCGATCCGCCCGCCCTTTCCCTTCGACCCACCCGCTTCCTCTCCGCCCGGCACCGCCGCCCGTCCGATCCCGCTTCCCGTCTACCCGCCCGCCGCTCCTTCCCGGTTCCGCCGCCCGCCCGATCCGCCAGCCTCTTCCCGTCCACCCGCCCGACGGTTCTCCTCCCGGTTCCGCCACCTGC (double strand) [RSP_2157 promoter fragment (no motif)] | no binding
3 | TGTAAGTGCTCATTCGTTGACCCCCTCTGACGTCTGCCGGCGTTCCGGCGACGCACGTTCCGTTCCGTCCGGCAGCGACGTCAGCGCTACCATGGACGTTTTAACGAGAGATGTTCAAGGAACCGTCGCGATGCCAGATTTGTTGCGGAATTTCACGCGAATGTAATCCGGCGTTACCCTTGCATCCGCGGCAGGAGAGACAGGAGGCTCGCCATATCCGCGGGCAAGGGGCTCTCGAAGCTCAGCTCCTCGCCGCTCACCGGATGGCGGAAGCCGAGGCTCGCCGCATGGAGCGCCTGCCGGGGGAAGGCTTCCGCCGCCGCCGCGGCCTCGGCCCCCAGTGCCTTCGGCGAGAGCTTG (double strand) [rpoH1 promoter fragment] | binds
